Percent effect of library compounds

The filed quantity is “Percent Effect” (%).
The record does not define 0% and 100%; most values in the screen are far below 50% and negative numbers occur (in some assays of this library far below -100).
The compounds are a random part of those screened.
Two or more numbers in one place are separate tests of the same structure; such repeats can differ widely.

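Phenotypic screen: M. tuberculosis growth, cholesterol and DPPC medium, 4 days; the read-out is not stated. Tested at 50 µM. The record gives no direction; compounds that gave an IC50 in retests scored well above the rest, so higher reads as more growth inhibition. Size under these conditions: about 69,000 compounds, about 370 of them at 50% or above in at least one test.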

| SMILES | effect |
|---|---|
| `COc1cccc(S(=O)(=O)Cc2cc(C)on2)c1` | -4.888% |
| `Cc1ncccc1NC(=O)c1nc2c(n1C)CCN(C(=O)C1CC1)C2` | -13.97% |
| `CC(C)[C@H]1CN(C2Cc3ccccc3C2)C[C@@H]1NS(=O)(=O)N(C)C` | 2.27% |
| `Cc1noc(C)c1CN1CCCC1c1c(C)nn(C)c1Cl` (stereo not shown) | -0.4968% |
| `COc1cccc(CN2CCCCCC2c2sccc2C)c1O` (stereo not shown) | 42.3% |
| `CN(C)C(=O)N1CCCC(C(=O)N(C)Cc2cnc(N)nc2)C1` (stereo not shown) | 20.02% |
| `CS(=O)(=O)N1CCCC(C(=O)N2CCOc3ccccc32)C1` (stereo not shown) | 2.011% |
| `Cc1cc(C2CN(CC(=O)NCc3ccco3)CCO2)ccc1F` (stereo not shown) | 15.14% |
| `CCOC(=O)CSc1nnc(C(N)CC(C)C)o1.Cl` (stereo not shown) | 23.39% |
| `Fc1ccc(-c2noc(CN3CCC(c4cc[nH]n4)CC3)n2)cc1` | 0.4243% & 7.571% |
| `Cc1cnn(CCNCc2c(C)nn(-c3ccccc3)c2C)c1` | -2.075% |
| `O=C(c1ccc(C2CCCO2)s1)N1CCCOCC1` (stereo not shown) | 19.98% |
| `O=C(O)C(F)(F)F.O=C1CCCN1Cc1ncn2c1CN(C(=O)N1CCCC1)CCC2` | 22.72% |
| `COCC(=O)N1CCC2(CC1)CN(c1cncnc1)C(=O)CO2` | 7.463% & 7.88% |
| `Cc1ccc(OCC(C)NS(=O)(=O)Cc2ccon2)cc1` (stereo not shown) | 11.99% |
| `N[C@H]1CCCN(S(=O)(=O)c2ccc(C(=O)NCC(F)F)cc2)C1` | 83.46% |
| `O=C1CCCN1C(CNS(=O)(=O)C1CC1)Cc1cccc(F)c1` (stereo not shown) | 0.5897% |
| `COc1cccc(COCC(O)CN2CC(n3cccn3)C2)c1` (stereo not shown) | -5.276% |
| `O=C(Cc1ccc(-n2cccn2)cc1)N1CCN2CCCCC2C1` (stereo not shown) | -19.85% |
| `CN(C)C(=O)CN1CCC2(CC1)CC(=O)c1ccc3ccccc3c1O2` | -13.17% |
| `CC(C)OCCCN(CC(=O)N1CCNCC1)C(=O)c1cccc(Cl)c1.O=C(O)C(F)(F)F` | 5.393% |
| `OCC1CCCN1c1cc(NCCc2c[nH]c3ccccc23)ncn1` (stereo not shown) | 25.91% |
| `CCN1CCOC(CNCc2c(Cl)nc3ccccn23)C1` (stereo not shown) | 33.64% |
| `Cc1ccsc1CN(CCN(C)C)C(=O)c1ccc(C#N)nc1` | 6.114% & -5.484% |
| `CN1CCN(c2cc(CNC(=O)c3cnccn3)ccn2)CC1` | 5.282% |
| `Cc1cc(O)cc(=O)n1CCCC(=O)Nc1n[nH]c2cc(Br)ccc12` | -6.792% |
| `O=c1[nH]c2c(c(=O)n1C1CCCCC1)CCC2NCCc1ccccc1` (stereo not shown) | -5.479% |
| `O=C(c1ccnc(CC2COc3ccccc3C2)c1)N1CCCC1` (stereo not shown) | -22.29% |
| `[H][C@@]12C[C@H](C(=O)Nc3ccccc3)[C@@]([H])(CN(C(=O)Nc3ccccc3)C1)O2` | -27.57% |
| `O=C(O)C(F)(F)F.O=C(O)C(F)(F)F.[H][C@]12CCN(c3ncc(C)cn3)[C@@]1([H])CC[C@@H](COCc1ccccn1)O2` | 7.981% & -3.799% |
| `CC(C)N(Cc1ccc(C#N)cc1)C(=O)Nc1ccccn1` | 3.324% |
| `CC1(C)CN(Cc2cc(C3CCCCC3)no2)CC[C@]1(C)O` | 0.4849% & -27.84% |
| `CNC(=O)C1CCCCN1C(=O)C1CCN(S(C)(=O)=O)CC1` (stereo not shown) | 6.427% |
| `[H][C@]12CCC[C@@]1(COC)CN(C(=O)N1CCCC1)C2` | 11.86% |
| `Cn1cnnc1-c1cncc(NCc2cccc3c2OC(C)(C)C3)c1` | -11.9% |
| `COc1cc(-c2nc3c([nH]2)CCCNC3=O)ccc1OC(C)C` | -14.06% & 1.602% |
| `CCn1cnnc1C1CCN(C(=O)C(OC)c2ccccc2)CC1` (stereo not shown) | -22.86% |
| `COCc1noc(-c2ccc(N(C)Cc3cn(C)nc3C)nc2)n1` | 30.37% & 32.13% |
| `CC(=O)N1CCC(C(=O)NC2CC(C)(C)Oc3cc(C)ccc32)CC1` (stereo not shown) | 1.246% |
| `CCc1nonc1NC(=O)C(C)Oc1ccccc1F` (stereo not shown) | -0.252% |
| `CCOC(=O)C1CCN(C(=O)CN2CCCC2Cc2ccccc2)CC1` (stereo not shown) | -2.939% |
| `c1ccc(CN2CCCC(Cn3cncn3)C2)nc1` (stereo not shown) | -44.87% |
| `COCCn1cnnc1CN(C)c1nc(N)nc2c1CCCC2` | 2.167% |
| `N#Cc1ccc(CN2CCCN(CCCn3cncn3)CC2)cc1` | -17.67% |
| `CSCC[C@@H](CO)NC(=O)c1ccc2nc(NS(C)(=O)=O)sc2c1` | -13.3% |
| `CCc1noc(CS(=O)(=O)Cc2nc(Cc3ccccc3)no2)n1` | 24.67% |
| `[H][C@@]12CCCO[C@]1([H])[C@H](N(C)Cc1ccco1)CN(Cc1ccoc1)C2` | 3.545% |
| `Cc1noc(C)c1CC(=O)N1CC[C@@](C)(O)[C@H](Oc2ccccc2)C1` | -4.629% & 13.32% |
| `Cc1cn2c(n1)CCC(NC(=O)CCC(F)(F)F)C2` (stereo not shown) | 1.483% |
| `CCNC(=O)CN1CCN(c2ccnc3c(F)ccc(F)c23)CC1` | -10.53% |
| `Cn1cc(-c2ccnc(NCC3CCCCO3)n2)cn1` (stereo not shown) | -1.611% |
| `[H][C@@]12CS(=O)(=O)C[C@]1([H])N(Cc1cc(F)cc(Cl)c1)CCN2CCO` | -27.5% |
| `CCCNC(=O)C1(Cc2cc(-c3ccccc3)no2)CCN(C(C)=O)C1` (stereo not shown) | -24.99% |
| `CCOCc1ncn2c1CN(C(=O)Nc1ccccc1)CC2` | -16.6% |
| `CC(C)C1CN(c2ncccn2)CCC(=O)N1Cc1ccc(F)cc1` (stereo not shown) | -5.318% |
| `O=C(O)c1csc(S(=O)(=O)Nc2cccc(OCC(F)(F)F)c2)c1` | -3.438% |
| `Cc1noc(CS(=O)(=O)c2cc(F)ccc2F)n1` | -9.669% |
| `CC1CCN(C(=O)c2cnn3c(-c4ccco4)ccnc23)CC1` | 11.5% |
| `Cc1cc(C)c(C(=O)N2CCC3(CCCN(CC(C)(C)C)C3)C2)[nH]1` (stereo not shown) | -4.608% |
| `CCc1noc(C)c1C(=O)N1CCCC1c1c(C)nn(C)c1OC` (stereo not shown) | 12.12% |
| `[H][C@@]12COC[C@]1(COCc1ccncc1)CN(C(=O)C1=CCCC1)C2` | 16.25% |
| `Cc1cc(CN2CCN(S(=O)(=O)c3c(C)c(Cl)cc(C)c3Cl)CC2)on1` | 4.468% |
| `Cc1ccc(CN2CCC3(CC2)CN(C(=O)c2cnccn2)CCO3)o1.O=C(O)C(F)(F)F` | -17.75% |
| `[H][C@@]12COC[C@]1([H])[C@H](OCc1ccccn1)CN2Cc1ccoc1` | 2.329% |
| `CCc1nnsc1C(=O)N1CCCC(n2nc(C)nc2C)C1` (stereo not shown) | 1.863% |
| `CCCc1nc(C)c(C(=O)NCCn2nc3ccccn3c2=O)s1` | -12.83% |
| `COC[C@]1(O)CCN(Cc2cnc(N(C)C)nc2)CC1(C)C` | 11.62% |
| `O=C(O)C(F)(F)F.[H][C@@]12CN(C(=O)c3ccsc3)C[C@]1([H])C(=O)N(Cc1cccnc1)C2` | -8.265% |
| `Cl.O=C(NCc1ccc(Cl)cc1)C1=NOC2(CCNC2)C1` (stereo not shown) | -10.59% |
| `COc1ccc(CNCc2ccnc(N3CCCCC3)c2)cc1OC` | 4.142% |
| `CC1CCN(c2ncc(C#N)c(N)n2)CC1` | 0.0405% |
| `Cc1cccc(CNC(C)c2ccc(OCC(=O)NC3CC3)cc2)c1` (stereo not shown) | -8.54% |
| `Cc1ccccc1SCC(=O)Nn1cnnc1` | -1.405% |
| `CCOCC1CN(C(=O)c2ccncc2)Cc2nn(C)cc21.O=C(O)C(F)(F)F` (stereo not shown) | 17.13% |
| `Cc1nsc(N2CCc3sccc3C2)n1` | 10.06% |
| `CC(C)COC(C)C(=O)NCc1ccccc1Cn1ccnc1` (stereo not shown) | -95.89% & -3.454% |
| `CN(CCCOc1ccccc1Cl)C(=O)CN1CCNC1=O` | -0.8929% |
| `CNS(=O)(=O)CC(=O)N(C1CC1)C1Cc2ccccc2C1` | 6.256% |
| `CCNC(=O)[C@@H]1C[C@@H](NC(=O)c2cc(C)on2)CN1Cc1ccccn1` | -13.21% |
| `O=C(c1ccnn1-c1ccc2ccccn12)N1CCCC1` | 1.204% |
| `N#Cc1cn(C2CC2)c(=O)n(CC(O)c2ccccc2C(F)(F)F)c1=O` (stereo not shown) | 0.31% |
| `CC1c2cc(F)ccc2CCN1CCCS(=O)(=O)C(C)C` (stereo not shown) | -1.988% |
| `CCN(CC)c1ccc(CNS(=O)(=O)C2CCOCC2)cc1F` | -7.527% |
| `Cc1nc(CNCC2CCCN2c2cccnn2)oc1C` (stereo not shown) | -10.24% & -19.35% |

For reference, 6 entries once more:

- COCC(=O)N1CCC2(CC1)CN(c1cncnc1)C(=O)CO2 | 7.463% & 7.88%
- CC(C)N(Cc1ccc(C#N)cc1)C(=O)Nc1ccccn1 | 3.324%
- [H][C@@]12CS(=O)(=O)C[C@]1([H])N(Cc1cc(F)cc(Cl)c1)CCN2CCO | -27.5%
- CN(C)C(=O)CN1CCC2(CC1)CC(=O)c1ccc3ccccc3c1O2 | -13.17%
- Cc1cc(C2CN(CC(=O)NCc3ccco3)CCO2)ccc1F (stereo not shown) | 15.14%
- CCNC(=O)[C@@H]1C[C@@H](NC(=O)c2cc(C)on2)CN1Cc1ccccn1 | -13.21%

Source: ChEMBL document CHEMBL3988442, “University of Dundee, Small-Polar-MMV Screening Library” (2021).